PubChem BioAssay AID686938, Drosophila RNAi Screening Center | 2013
In all, the deposit lists about 23,000 reagents; shown is an unselected part of those with a known target gene and a result. Over the whole deposit, 75 (0.33%) were called active. 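Raw plate signals without normalisation; calls rest on plate z-scores that were not deposited; ratio present for only 364 wells.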 Unmarked entries are inactive. No sequences are given here. The record does not give: the dose of the treatment.

Test: 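Knock-downs reducing store-operated calcium influx in Drosophila cells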 (primary screen)
Cell system: Drosophila S2R+ cells
Reagent: long dsRNA against Drosophila genes, about 0.25 µg dsRNA per well, roughly 10,000 cells
Duration: 5 days of knock-down before the calcium assay
Treatment: thapsigargin (SERCA pump blocker) to empty calcium stores; entry signal taken 4 min after adding it
Measured: 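Duplicate raw fluo-4 intensities per well from a plate reader, at rest and four minutes after thapsigargin emptied calcium stores; entry-to-rest ratio filled for only some wells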
Direction: calcium entry signal: higher = stronger calcium signal after store depletion; resting calcium signal: higher = higher resting calcium signal
Units: calcium entry signal in fluorescence units; resting calcium signal in fluorescence units
Active means: 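Called when the plate z-score of the entry-to-rest ratio, mean of duplicates, falls below −3; wells with low overall dye signal (Fmax z below −2) or more than five off-targets excluded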
Calls: active = strongly reduced calcium entry; inactive = no strong reduction

With CG4408 [DRSC15574], what was measured?
calcium entry signal, replicate 1: 4.96e7; calcium entry signal, replicate 2: 4.80e7; resting calcium signal, replicate 1: 2.38e7; resting calcium signal, replicate 2: 2.00e7

For Chmp1 [DRSC10401], what does the deposit list?
calcium entry signal, replicate 1: 3.04e7; calcium entry signal, replicate 2: 4.56e7; resting calcium signal, replicate 1: 1.41e7; resting calcium signal, replicate 2: 3.13e7

How did the screen score Octbeta1R [DRSC16134]?
calcium entry signal, replicate 1: 4.07e7; calcium entry signal, replicate 2: 3.92e7; resting calcium signal, replicate 1: 4.28e7; resting calcium signal, replicate 2: 1.74e7

With CG3919 [DRSC10389], what does the deposit list?
calcium entry signal, replicate 1: 2.96e7; calcium entry signal, replicate 2: 4.26e7; resting calcium signal, replicate 1: 1.38e7; resting calcium signal, replicate 2: 2.95e7

For CG31819 [DRSC01532], what does the deposit list?
calcium entry signal, replicate 1: 3.74e7; calcium entry signal, replicate 2: 3.48e7; resting calcium signal, replicate 1: 1.95e7; resting calcium signal, replicate 2: 1.84e7

What is on record for Obp99c [DRSC16262]?
calcium entry signal, replicate 1: 5.12e7; calcium entry signal, replicate 2: 4.67e7; resting calcium signal, replicate 1: 2.37e7; resting calcium signal, replicate 2: 1.96e7

For ATPsynGL [DRSC03027], what does the deposit list?
calcium entry signal, replicate 1: 2.56e7; calcium entry signal, replicate 2: 4.09e7; resting calcium signal, replicate 1: 1.25e7; resting calcium signal, replicate 2: 1.88e7

With CG31913 [DRSC00892], what was measured?
calcium entry signal, replicate 1: 2.50e7; calcium entry signal, replicate 2: 3.63e7; resting calcium signal, replicate 1: 1.33e7; resting calcium signal, replicate 2: 1.65e7

With Scox [DRSC03117], how do the results read?
calcium entry signal, replicate 1: 3.86e7; calcium entry signal, replicate 2: 3.82e7; resting calcium signal, replicate 1: 1.99e7; resting calcium signal, replicate 2: 1.86e7

With CG14568 [DRSC11729], how do the results read?
calcium entry signal, replicate 1: 3.47e7; calcium entry signal, replicate 2: 5.57e7; resting calcium signal, replicate 1: 1.58e7; resting calcium signal, replicate 2: 2.13e7

What is on record for Set [DRSC16861]?
calcium entry signal, replicate 1: 3.56e7; calcium entry signal, replicate 2: 4.37e7; resting calcium signal, replicate 1: 1.55e7; resting calcium signal, replicate 2: 1.76e7

With CG6472 [DRSC06989], what was measured?
calcium entry signal, replicate 1: 3.62e7; calcium entry signal, replicate 2: 5.22e7; resting calcium signal, replicate 1: 1.59e7; resting calcium signal, replicate 2: 2.32e7

Reformatted: results already given
{"Gene": "CG3919", "dsRNA": "DRSC10389", "calcium entry signal, replicate 1": 2.96e7, "calcium entry signal, replicate 2": 4.26e7, "resting calcium signal, replicate 1": 1.38e7, "resting calcium signal, replicate 2": 2.95e7}
{"Gene": "CG31819", "dsRNA": "DRSC01532", "calcium entry signal, replicate 1": 3.74e7, "calcium entry signal, replicate 2": 3.48e7, "resting calcium signal, replicate 1": 1.95e7, "resting calcium signal, replicate 2": 1.84e7}
